US20030119027
For some assays here: Tags and fusion partners may be left off the protein sequences shown. For some assays here: The exact form of at least one protein or probe is not confirmed.

Columns and labels:
[1] = system: NlaIII (Neisseria lactamica); assay: enzyme reaction in vitro; conditions: crude lysate, activity consistent with R.NlaIII; protein in a lysate after overexpression; protein details: pLT7-NlaIII in E. coli ER2566P; only the motif is given
[2] = molecular target: T1, MjaI (MJ0984) (Methanococcus jannaschii) (UniProt Q58391); assay: enzyme reaction in vitro; conditions: NEB buffer 4 (10 mM Mg acetate), 37 C overnight; pattern identical to BfaI; protein translated in vitro; only the motif is given
T1 sequence (looked up): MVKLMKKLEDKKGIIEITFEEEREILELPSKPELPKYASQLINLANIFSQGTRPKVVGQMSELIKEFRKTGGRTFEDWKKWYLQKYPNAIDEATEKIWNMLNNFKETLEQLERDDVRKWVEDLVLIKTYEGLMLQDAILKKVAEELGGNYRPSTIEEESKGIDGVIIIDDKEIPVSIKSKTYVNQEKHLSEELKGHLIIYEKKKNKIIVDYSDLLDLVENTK

[3] = molecular target: T2, MjaIII (MJ0600) (Methanococcus jannaschii) (UniProt Q58017); assay: enzyme reaction in vitro; conditions: MboI isoschizomer; protein in a lysate after overexpression; only the motif is given
T2 sequence (looked up): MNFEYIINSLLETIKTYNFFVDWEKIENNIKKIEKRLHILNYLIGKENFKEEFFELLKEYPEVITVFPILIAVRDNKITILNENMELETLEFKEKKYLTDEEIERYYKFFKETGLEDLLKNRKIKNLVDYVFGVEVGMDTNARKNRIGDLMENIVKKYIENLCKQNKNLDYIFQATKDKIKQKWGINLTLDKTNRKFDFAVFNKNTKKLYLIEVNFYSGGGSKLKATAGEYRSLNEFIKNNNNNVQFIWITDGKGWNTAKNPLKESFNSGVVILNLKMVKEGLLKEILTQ

[4] = molecular target: T3, M.MjaV (MJ1498 methyltransferase) (Methanococcus jannaschii) (UniProt Q58893); assay: activity in cells; conditions: methylation in E. coli protects pSYX20 clone from RsaI; GTAC could be a subset of target; protein in cells; only the motif is given
T3 sequence (looked up): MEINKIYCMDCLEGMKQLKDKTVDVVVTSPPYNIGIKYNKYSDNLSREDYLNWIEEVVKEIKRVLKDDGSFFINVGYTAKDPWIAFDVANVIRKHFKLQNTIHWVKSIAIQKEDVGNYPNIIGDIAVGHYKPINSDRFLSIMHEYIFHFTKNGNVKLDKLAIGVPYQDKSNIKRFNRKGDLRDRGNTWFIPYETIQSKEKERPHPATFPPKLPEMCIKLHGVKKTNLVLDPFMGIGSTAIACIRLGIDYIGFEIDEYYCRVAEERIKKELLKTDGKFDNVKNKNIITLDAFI

[5] = molecular target: T4, PacI (Pseudomonas alcaligenes) (UniProt D5MNX7); assay: enzyme reaction in vitro; conditions: pattern identical to authentic PacI; protein translated in vitro; protein details: wheat germ translation, gene from NEB 585
T4 sequence (looked up, limits assumed): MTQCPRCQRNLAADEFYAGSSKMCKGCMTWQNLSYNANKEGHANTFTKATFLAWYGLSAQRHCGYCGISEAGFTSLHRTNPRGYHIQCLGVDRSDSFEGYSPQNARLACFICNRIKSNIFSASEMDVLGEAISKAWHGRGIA

Sequence: CATG (double strand) [NlaIII site]
- activity on this sequence [1]: active

Sequence: CTAG (double strand) [CTAG site (lambda DNA)]
- activity on this sequence [2]: active

Sequence: GATC (double strand) [GATC site]
- activity on this sequence [3]: active

Sequence: GTAC (double strand) [GTAC site]
- activity on this sequence [4]: active

Sequence: TTAATTAA (double strand) [PacI site]
- activity on this sequence [5]: active
